Data: PubChem BioAssay AID2685 (National Center for Advancing Translational Sciences (NCATS), 2010)
The other results are listed elsewhere or left out. Further columns of the screen follow, without active or inactive calls. The list favours compounds with an active or inconclusive main result. The note in brackets gives the kind of curve behind each potency; many fits are weak.

Test: qHTS Assay for Lipid Storage Modulators in Drosophila S3 Cells;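 as to cell number change: cells counted by Cell Tracker Red CMTPX staining in the red channel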
Conditions: BODIPY lipid droplet fluorescence, 18-24 h; for cell number change: measured here: cell count max response, cells fed with added oleic acid
Outline: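 Laser-scanning cytometry quantifies lipid droplet accumulation (500–530 nm total intensity; droplet/cell object ratio) in oleic acid-fed (400 uM added) Drosophila S3 cells treated with a concentration series. 20 uM Triacsin C defined 100% inhibition.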

[1] = measured here: cell number channel AC50, cells fed with added oleic acid
[2] = measured here: lipid fluorescence (Fed channel) AC50, cells fed with added oleic acid

Row | SMILES | cell number change [%] | AC50 [1] | AC50 [2]
1 | CC(C)S(=O)(=O)C1=NSC2=NC(=O)/C(=C\c3ccc(-c4cccc(C(=O)O)c4)o3)C(=N)N21 | -17.5 |  | 
2 | CCOC(=O)Cn1cnc2c(cnn2-c2ccccc2)c1=O | -5.59 | 6.51 µM [falling, single point] | 
3 | CSc1ccc(/C=C/C(=O)OCC(=O)NC2CC2)cc1 | -12.9 |  | 3.26 µM [rising, partial curve, poor fit]
4 | COc1ccccc1OCCNC(=O)c1cccc(S(=O)(=O)N2CC(C)OC(C)C2)c1 (stereo not drawn) | -9.67 |  | 
5 | Cc1ccc(S(=O)(=O)N2CCCC2)cc1C(=O)NCC(C)(C)N1CCOCC1 | -17.2 |  | 23.1 µM [falling, single point]
6 | O=C(Nc1cccc(C(F)(F)F)c1)C1=CC=CN2CCS(=O)(=O)N=C12 | -40.3 | 29.1 µM [falling, single point] | 3.66 µM [falling, single point]
7 | O=C(O)C1CCCN1S(=O)(=O)c1ccc(Br)s1 (stereo not drawn) (tested in a mixture with another compound) | -107 | 29.1 µM [falling, partial curve] | 23.1 µM [falling, partial curve, poor fit]
8 | CC(C)(C)c1ccc(OCCC(=O)Nc2ccc(N3CCOCC3)cc2N2CCOCC2)cc1 | 90 | 2.91 µM [rising, full curve] | 
9 | COc1ccc(O)c(-c2cc(C(F)(F)C(F)F)nc(-c3ccccc3)n2)c1 | 1.23 |  | 0.58 µM [falling, full curve]
10 | COc1ccc2nc(Cl)c(C3CC(c4ccco4)=NN3C(=O)CCC(=O)O)cc2c1 (stereo not drawn) | -3.21 | 7.31 µM [rising, single point] | 6.51 µM [rising, single point]
11 | O=C1CC(SCc2nc3ccccc3[nH]2)C(=O)N1c1cccc(F)c1 (stereo not drawn) | -4.88 |  | 29.1 µM [falling, single point]
12 | Cc1ccc(NC(=O)Cc2ccc(Cl)c(Cl)c2)cc1S(=O)(=O)N(C)C | -16.7 | 0.116 µM [falling, full curve, poor fit] | 1.03 µM [rising, full curve, poor fit]
13 | COc1ccc2c(C(=O)CN3CCC(C)CC3)c[nH]c2c1 | 46.1 | 16.4 µM [rising, single point] | 0.82 µM [falling, single point]
14 | O=C(CCN1CCCCO1)N1CCCC(Nc2cccc(F)c2)C1 (stereo not drawn) | -9.19 |  | 14.6 µM [falling, partial curve, poor fit]
15 | O=C(CN(c1ccc2c(c1)OCCO2)S(=O)(=O)c1ccccc1)Nc1ccc2c(c1)OCO2 | -24.4 |  | 1.64 µM [rising, partial curve, poor fit]

Gathered by group: the entries above containing a COOH group.
Row | SMILES | cell number change [%] | AC50 [1] | AC50 [2]
1 | CC(C)S(=O)(=O)C1=NSC2=NC(=O)/C(=C\c3ccc(-c4cccc(C(=O)O)c4)o3)C(=N)N21 | -17.5 |  | 
7 | O=C(O)C1CCCN1S(=O)(=O)c1ccc(Br)s1 (stereo not drawn) (tested in a mixture with another compound) | -107 | 29.1 µM [falling, partial curve] | 23.1 µM [falling, partial curve, poor fit]
10 | COc1ccc2nc(Cl)c(C3CC(c4ccco4)=NN3C(=O)CCC(=O)O)cc2c1 (stereo not drawn) | -3.21 | 7.31 µM [rising, single point] | 6.51 µM [rising, single point]
